Experiment: Ex vivo metabolite analysis (plasma and brain) in healthy male Wistar rats
Details: rat brain homogenate, MeCN/H2O extraction
Method: In vivo stability of analogues [^11C]1–3 and [^11C]SMW139 was assessed in healthy male Wistar rats at 15 and 45 minutes after injection of 30–40 MBq of formulated tracer. […] Results obtained in plasma correspond with previously reported stability results in rat liver microsomes. A higher level of intact tracer was found in brain (Table 3) for [^11C]1 and [^11C]SMW139 compared with [^11C]2 and [^11C]3. Despite optimisation of the extraction method, the percentage of total radioactivity that could be extracted from brain homogenates was not optimal for all four compounds (59 ± 6% for [^11C]1; 58 ± 7% for [^11C]2; 61 ± 4% for [^11C]3; 62 ± 3% for [^11C]SMW139). Therefore, based on its highest stability in plasma in vivo, [^11C]SMW139 was selected for further in vivo studies. As imaging studies were performed in female rats, plasma metabolites were also determined in two female rats, and no differences were found between plasma metabolism of [^11C]SMW139 in male and female rats (Table S1; Supplementary Information).
For each of the carbon-11 labelled benzamide analogues [^11C]1–3 and [^11C]SMW139, a biodistribution study and metabolite analysis in healthy male Wistar rats was performed, as described in detail in the Supplementary Information. Briefly, tracer distribution in blood, brain, and peripheral organs was measured at 5, 15, 30 and 45 min after intravenous injection of 13–23 MBq of formulated tracer. Metabolite analysis was performed at 15 and 45 min after intravenous injection of 30–40 MBq of formulated tracer in both blood plasma and brain. […]
Ex vivo metabolite analysis
Healthy male and female Wistar rats (254-440 g) were injected with 30-40 MBq (at start of experiment) of formulated tracer in the tail vein under isoflurane anaesthesia. Rats were sacrificed at 15 and 45 min (n = 3 per time point). Blood samples were obtained and the brain was excised. Blood samples were collected in heparin tubes (BD Vacutainer NH 119 I.U., 7 mL, BD Vacutainer Systems, Plymouth, UK) and centrifuged at 4,000 rpm for 5 min at 4 °C (Hettich Universal 32, Andreas Hettich GmbH & Co.KG, Tuttlingen, Germany). Plasma supernatant was separated from blood cells and loaded onto a tC18 Sep-Pak (Waters, Milford, MA, USA), followed by washing with 3 mL of water to obtain the polar fraction. The non-polar fraction was then eluted with 2 mL of MeOH and 1 mL of water and further analysed by HPLC. […] Supernatant was separated from brain precipitate and analysed by HPLC. […]
0.25 mL·min-1. All separate fractions were counted for radioactivity in a Wizard Gammacounter 1470 or 2480 (Wallac/PerkinElmer, Waltham, MA, USA).

SMILES | Percentage of total radioactivity extracted from brain homogenates [%]
[11CH3]Oc1ccc(Cl)c(C(=O)NCC23CC4CC(CC(C4)C2)C3)c1 [[^11C]1] | 59 ± 6
[11CH3]Oc1ccc(Cl)c(C(=O)NCC23CC4CC(CC(F)(C4)C2)C3)c1 [[^11C]2] | 58 ± 7
[11CH3]Oc1ccc(Cl)c(C(=O)NCC23CC4(F)CC(F)(CC(F)(C4)C2)C3)c1 [[^11C]SMW139] | 62 ± 3
[11CH3]Oc1ccc(Cl)c(C(=O)NCC23CC4CC(F)(CC(F)(C4)C2)C3)c1 [[^11C]3] | 61 ± 4

Source: paper PMC5920098, “Identification of the allosteric P2X7 receptor antagonist [^11C]SMW139 as a PET tracer of microglial activation” (Scientific Reports, 2018)
